# From paper PMC7430671
# No constants are given. Whether binding was seen depends on the method and setting.
# Target: His6-RneNTD (E. coli)
# Experiment: pull-down; His-tagged RneNTD (3.5 µg) immobilised on Ni-NTA magnetic agarose beads; 3.5 µg Strep-tagged candidate protein in 250 µL interaction buffer (50 mM NaH2PO4, 300 mM NaCl, 10 mM MgCl2, 40 mM imidazole, 0.005% Tween 20, pH 8.0), 1.5 h at RT, 4 washes; SDS-PAGE/Coomassie; both purified
binder,measurement,value
"Strep-RNase G (enzyme, UniProt P0A9J0 1-489) MTAELLVNVTPSETRVAYIDGGILQEIHIEREARRGIVGNIYKGRVSRVLPGMQAAFVDIGLDKAAFLHASDIMPHTECVAGEEQKQFTVRDISELVRQGQDLMVQVVKDPLGTKGARLTTDITLPSRYLVFMPGASHVGVSQRIESESERERLKKVVAEYCDEQGGFIIRTAAEGVGEAELASDAAYLKRVWTKVMERKKRPQTRYQLYGELALAQRVLRDFADAELDRIRVDSRLTYEALLEFTSEYIPEMTSKLEHYTGRQPIFDLFDVENEIQRALERKVELKSGGYLIIDQTEAMTTVDINTGAFVGHRNLDDTIFNTNIEATQAIARQLRLRNLGGIIIIDFIDMNNEDHRRRVLHSLEQALSKDRVKTSVNGFSALGLVEMTRKRTRESIEHVLCNECPTCHGRGTVKTVETVCYEIMREIVRVHHAYDSDRFLVYASPAVAEALKGEESHSLAEVEIFVGKQVKVQIEPLYNQEQFDVVMM",binding,no binding (tested: 3.5 µg in 250 µL interaction buffer)
